# Results as given in patent US20040265265A1, “Odor control composition and process” (H&S CHEMICAL COMPANY, INC., priority 2001, published 2004).
# Some entries share one result that the patent states for a list of compounds.
# Test: pH at which a 5% solution naturally buffers itself
# Assay type: physicochemical
row,Compound,pH range at which the solution naturally buffers itself
1,"O=C([O-])c1ccc(S(=O)(=O)NCl)cc1.[Na+] [CH-BENZ, N-Chloro-4-Carboxybenzenesulfonamide sodium salt]",8.5-9.5
2,"Cc1ccc(S(=O)(=O)[N-]Cl)cc1.[Na+] [CHT, Chloramine-T]",8.5-9.5
